This is one part of the list.
Key:
Assay in all cases: glycan array binding signal (z-score within array); higher = stronger binding
Conditions in all cases: glycan notation: IUPAC condensed, linker removed
[1] = biological target: Gal3S(b1-4)Glc
In short: (§1)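 Arrays were curated from the Consortium for Functional Glycomics database, 3228 in total, and kept only where the protein sequence was available. Binding is expressed as a within-array Z-score. This score was averaged across arrays of the same protein sequence at different concentrations or buffers and across linkers, and negative values can be read as non-binding.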

[2] = biological target: Gal3S(b1-4)Glc6S
In short: as §1

[3] = biological target: Gal3S(b1-4)GlcNAc
In short: as §1

[4] = biological target: Gal3S(b1-4)[Fuc(a1-3)]Glc6S
In short: as §1

[5] = biological target: Gal3S(b1-4)[Fuc(a1-3)]GlcNAc
In short: as §1

[6] = biological target: Gal3S(b1-4)[Fuc(a1-3)]GlcNAc6S
In short: as §1

[7] = biological target: Gal3S4S(b1-4)GlcNAc
In short: as §1

[8] = biological target: Gal3S6S(b1-4)GlcNAc
In short: as §1

[9] = biological target: Gal3S6S(b1-4)GlcNAc6S
In short: as §1

[10] = biological target: Gal4S(b1-4)GlcNAc
In short: as §1

[11] = biological target: Gal4S6S(b1-4)GlcNAc
In short: as §1

[12] = biological target: Gal6P(b1-4)GlcNAc
In short: as §1

[13] = biological target: Gal6S(b1-3)GlcNAc
In short: as §1

[14] = biological target: Gal6S(b1-3)GlcNAc6S
In short: as §1

[15] = biological target: Gal6S(b1-4)Glc
In short: as §1

[16] = biological target: Gal6S(b1-4)Glc6S
In short: as §1

[17] = biological target: Gal6S(b1-4)GlcNAc
In short: as §1

[18] = biological target: Gal6S(b1-4)GlcNAc6S
In short: as §1

[19] = biological target: GalNAc(a1-3)Gal
In short: as §1

[20] = biological target: GalNAc(a1-3)GalNAc
In short: as §1

[21] = biological target: GalNAc(a1-3)GalNAc(a1-3)Gal(a1-4)Gal(b1-4)GlcNAc
In short: as §1

[22] = biological target: GalNAc(a1-3)GalNAc(b1-3)Gal(a1-4)Gal(b1-4)Glc
In short: as §1

[23] = biological target: GalNAc(b1-3)Gal
In short: as §1

[24] = biological target: GalNAc(b1-3)Gal(a1-4)Gal(b1-4)GlcNAc
In short: as §1

[25] = biological target: GalNAc(b1-3)Gal(a1-4)Gal(b1-4)GlcNAc(b1-3)Gal(b1-4)Glc
In short: as §1

[26] = biological target: GalNAc(b1-3)Gal(a1-6)Gal(b1-4)Glc
In short: as §1

[27] = biological target: GalNAc(b1-3)GalNAc
In short: as §1

[28] = biological target: GalNAc(b1-3)GlcNAc
In short: as §1

[29] = biological target: GalNAc(b1-4)Gal(b1-4)Glc
In short: as §1

[30] = biological target: GalNAc(b1-4)GlcNAc
In short: as §1

[31] = biological target: GalNAc(b1-4)GlcNAc(b1-2)Man
In short: as §1

[32] = biological target: GalNAc(b1-4)GlcNAc(b1-2)Man(a1-3)[GalNAc(b1-4)GlcNAc(b1-2)Man(a1-6)]Man(b1-4)GlcNAc(b1-4)GlcNAc
In short: as §1

[33] = biological target: GalNAc(b1-4)GlcNAc(b1-3)GalNAc(b1-4)GlcNAc
In short: as §1

[34] = biological target: GalNAc(b1-4)GlcNAc6S
In short: as §1

[35] = biological target: GalNAc(b1-6)GalNAc
In short: as §1

[36] = biological target: GalNAc3S(b1-4)GlcNAc
In short: as §1

[37] = biological target: GalNAc3S(b1-4)GlcNAc3S
In short: as §1

B1: Protein L(B1-B4) (Finegoldia magna), Q51912 (protein)
chain: KEETPETPETDSEEEVTIKANLIFANGSTQTAEFKGTFEKATSEAYAYADTLKKDNGEYTVDVADKGYTLNIKFAGKEKTPEEPKEEVTIKANLIYADGKTQTAEFKGTFEEATAEAYRYADALKKDNGEYTVDVADKGYTLNIKFAGKEKTPEEPKEEVTIKANLIYADGKTQTAEFKGTFEEATAEAYRYADLLAKENGKYTVDVADKGYTLNIKFAGKEKTPEEPKEEVTIKANLIYADGKTQTAEFKGTFAEATAEAYRYADLLAKENGKYTADLEDGGYTINIRFAG
[1]
  glycan array binding signal (z-score): -0.905
[2]
  glycan array binding signal (z-score): -0.522
[3]
  glycan array binding signal (z-score): -0.525
[4]
  glycan array binding signal (z-score): 2.28
[5]
  glycan array binding signal (z-score): -0.588
[6]
  glycan array binding signal (z-score): -0.253
[7]
  glycan array binding signal (z-score): -0.431
[8]
  glycan array binding signal (z-score): -0.513
[9]
  glycan array binding signal (z-score): -0.561
[10]
  glycan array binding signal (z-score): -0.861
[11]
  glycan array binding signal (z-score): -0.094
[12]
  glycan array binding signal (z-score): -1.08
[13]
  glycan array binding signal (z-score): -0.656
[14]
  glycan array binding signal (z-score): -1.01
[15]
  glycan array binding signal (z-score): -0.34
[16]
  glycan array binding signal (z-score): 0.409
[17]
  glycan array binding signal (z-score): -0.729
[18]
  glycan array binding signal (z-score): -0.529
[19]
  glycan array binding signal (z-score): -0.351
[20]
  glycan array binding signal (z-score): -1.02
[21]
  glycan array binding signal (z-score): -0.615
[22]
  glycan array binding signal (z-score): -0.59
[23]
  glycan array binding signal (z-score): -0.224
[24]
  glycan array binding signal (z-score): -0.034
[25]
  glycan array binding signal (z-score): -1.17
[26]
  glycan array binding signal (z-score): -0.554
[27]
  glycan array binding signal (z-score): -0.834
[28]
  glycan array binding signal (z-score): -0.897
[29]
  glycan array binding signal (z-score): -0.314
[30]
  glycan array binding signal (z-score): -0.943
[31]
  glycan array binding signal (z-score): -0.339
[32]
  glycan array binding signal (z-score): 1.49
[33]
  glycan array binding signal (z-score): -0.223
[34]
  glycan array binding signal (z-score): -0.969
[35]
  glycan array binding signal (z-score): -0.531
[36]
  glycan array binding signal (z-score): -1.09
[37]
  glycan array binding signal (z-score): -0.876
